Results reported in paper PMC11772500.
No constants are given. Whether binding was seen depends on the method and setting. Some results given as binding are weak or reduced against the parent protein; the word gives no strength.

Sequences of proteins named here, by UniProt entry; tags and fusion partners are left off. A change or cut given only in a name is not applied to a line headed by its entry. A line that says so, or that is headed by a name, gives the form on record, which may keep a tag or linker. Residues count along the entry.
SUMO-His-tagged WT MSP domain of VAPB (O95292, residues 7-124): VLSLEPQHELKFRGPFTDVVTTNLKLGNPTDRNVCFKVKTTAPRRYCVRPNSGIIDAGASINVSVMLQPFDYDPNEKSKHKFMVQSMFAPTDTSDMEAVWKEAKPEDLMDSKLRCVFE
untagged P56S MSP domain of VAPB (O95292, form named): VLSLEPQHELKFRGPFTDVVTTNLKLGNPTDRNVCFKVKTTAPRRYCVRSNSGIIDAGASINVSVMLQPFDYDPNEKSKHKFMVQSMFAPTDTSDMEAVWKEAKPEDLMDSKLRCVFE

Tests used:
[1] = target: SUMO-His-tagged P56S MSP domain of VAPB (human) (UniProt O95292); assay: polyacrylamide gel of unboiled samples (Ponceau S staining, Western blot); 6 ug of purified SUMO-His-tagged MSP domain in sample buffer with or without reducing agents (DTT 10 and 20 mM), 12% polyacrylamide gel, samples not boiled; DTT reduced the multimeric forms of P56S; both purified
[2] = target: SUMO-His-tagged WT MSP domain of VAPB (human) (UniProt O95292); assay: pull-down; 4 ug SUMO-His-tagged WT or P56S MSP domain on Ni-NTA agarose as bait, 4 ug untagged WT or P56S MSP domain as prey; overnight at 4°C; 25 m Tris-HCl pH 7.4, 150 mM NaCl, 0.2% Triton X-100, 0.5 mg/ml BSA; with or without 1 mM DTT (association counteracted by reducing agents); prey detected by anti-VAPB blot; both purified
[3] = target: SUMO-His-tagged P56S MSP domain of VAPB (human) (UniProt O95292); assay: as above

Row | binding [1] | binding [2] | binding [3] | Substance
1 | binds |  |  | SUMO-His-tagged P56S MSP domain of VAPB (from UniProt O95292 7-124) (domain or fragment)
2 |  | binds | binds | untagged P56S MSP domain of VAPB (from UniProt O95292 7-124) (domain or fragment)
